This assay in a line: qHTS Assay to Find Inhibitors of Chronic Active B-Cell Receptor Signaling. As to conditions: ABC-DLBCL IkBa-CBG/CBR reporter, luminescence ratio (green luciferase fused to IkBa over red control in TMD8 lymphoma cells), 4 h. A digest of the protocol: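 TMD8 ABC-DLBCL cells carrying doxycycline-inducible green luciferase fused to IkappaBalpha plus unfused red luciferase were exposed to compounds (up to 46 uM) for 4 hrs at 37C. Activity came from the overlap-corrected green/red luminescence ratio.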

[1] abbreviates: measured here: CBR red luminescence, cell number.
The mark [2] stands for this setting: measured here: IkBa-CBG green luminescence.

Molecules are shown by their SMILES. This is one part of the list. These are further read-outs of the screen, such as a control signal, another cell line or another target. No call is given for them. The list favours compounds with an active or inconclusive main result. The note in brackets gives the kind of curve behind each potency; many fits are weak.

Consider `COC(=O)C1=C(COc2ccc(C=O)cc2OC)NC(=O)NC1c1cc(C)ccc1C` (stereo not drawn), for which the AC50 under setting [1] is 1.16 µM [rising, full curve, poor fit].

Take `COc1ccc(NS(=O)(=O)c2cccc(NC(=O)NCCCl)c2)cc1`: under setting [1], the AC50 is 35.5 µM [rising, single point].

With `Brc1cccc(-c2n[nH]c(-c3ccccc3)n2)c1`, the AC50 under setting [1] is 7.31 µM [falling, partial curve, poor fit].

`O=C(c1ccc(Cn2c(=S)[nH]c3cc4c(cc3c2=O)OCO4)cc1)N1CCN(c2ncccn2)CC1`: under setting [1], the AC50 is 7.08 µM [falling, partial curve, poor fit].

As for `O=C(COC(=O)CCC1CCCC1)Nc1nc2c(F)c(F)c(F)cc2s1`, the AC50 under setting [1] was 7.31 µM [rising, partial curve, poor fit].

Regarding `OC(CCN1CCCCC1)c1ccc(-c2ccccc2)cc1` (stereo not drawn), the AC50 under setting [1] is 8.91 µM [rising, single point].

For `CCOC(=O)c1[nH]ncc1CN1CCN(Cc2ccc(C)cc2)C(CCO)C1` (stereo not drawn), the AC50 under setting [1] is 6.31 µM [rising, single point].

In the case of `C[C@@H](C(=O)N1CCN(c2ccccc2)CC1)N1C(=O)C2CC=CCC2C1=O` (stereo partly drawn), the AC50 under setting [1] is 13 µM [rising, single point].

`CCNC(=S)N/N=C(\C)c1ccc2c(c1)OCCO2`: the AC50 is 0.291 µM [falling, full curve, poor fit] under setting [1] and 20.6 µM [falling, single point] under setting [2].

`Cc1nc(CCNC(=O)CC2C(=O)NCCN2Cc2ccc(F)cc2)sc1C` (stereo not drawn): the AC50 under setting [1] is 25.1 µM [rising, single point] and the AC50 under setting [2] is 35.5 µM [falling, single point].

Consider `COc1ccccc1NC(=O)/C=C\c1ccco1`, for which the AC50 under setting [1] is 11.2 µM [falling, partial curve, poor fit].

As for `Cc1cccc(NNC(=O)C(=O)NNc2cccc(C)c2)c1`, the AC50 under setting [1] is 31.6 µM [rising, single point].

As for `NC(=S)N/N=C/c1ccc(-c2cc(Cl)ccc2Cl)o1`, under setting [1], the AC50 was 0.0651 µM [rising, full curve, poor fit].

On to `CCOC(=O)c1ccc(N=c2scc(C)n2CC)cc1`, for which, under setting [1], the AC50 was 3.55 µM [rising, full curve, poor fit].

With `CN(C)c1ccc(C(=O)OCc2ccc(Br)cc2)cc1`, under setting [1], the AC50 is 14.6 µM [rising, partial curve, poor fit].

With `CCOC(=O)c1sc(Nc2nc3c(OC)cccc3s2)nc1C`, the AC50 under setting [1] is 0.00731 µM [falling, full curve, poor fit].

Consider `COc1cc(/C=C/C(=O)NCc2ccccn2)cc(OC)c1OC`, for which, under setting [1], the AC50 was 3.66 µM [rising, partial curve, poor fit].

Regarding `Nc1ccc2c3c(cccc13)CC2`, under setting [2], the AC50 was 28.2 µM [falling, single point].

In the case of `CCn1ncc(/C=N\NC(=O)c2ccc3c(c2)c(C)c(C)n3Cc2ccccc2)c1C`, the concentration at half-maximal activity (AC50) under setting [1] was 29.1 µM [rising, single point].

In the case of `COCCCn1c(SCC(=O)NC2CCCC2)nnc1-c1ccco1`, the AC50 under setting [1] is 2.91 µM [falling, single point].

For `Cc1cccc(/C(N)=N/OC(=O)COc2ccccc2Cl)c1`, the AC50 under setting [1] was 2.31 µM [rising, partial curve, poor fit].

Regarding `C(=N\N=C\c1ccccn1)/c1ccccn1`, under setting [1], the AC50 was 35.5 µM [rising, single point].

Regarding `Cn1c(C(C#N)C(=O)Cc2cccc3ccccc23)nc2ccccc21` (stereo not drawn), the AC50 under setting [1] was 1 µM [falling, full curve, poor fit].

As to `COCCCN=C1NN=C(c2cc(C)n(Cc3ccccc3Cl)c2C)CS1`, under setting [1], the AC50 is 4.47 µM [falling, partial curve, poor fit].

Take `Cc1cc(O)ccc1N=Cc1c(C(F)(F)F)[nH][nH]c1=O`: the concentration at half-maximal activity (AC50) under setting [1] was 35.5 µM [falling, single point].

For the compound `Cc1cc(C)n(-c2c(C)[nH]c3ccccc23)n1`, the AC50 under setting [1] is 35.5 µM [falling, single point].

Take `COc1ccccc1NC(=O)c1cccc2c(Br)cccc12`: under setting [1], the AC50 is 14.1 µM [rising, partial curve, poor fit].

Turning to `CCOC(=O)c1sc(NC(=S)NC(=O)c2ccccc2Cl)c(C(=O)OCC)c1C`, under setting [1], the half-maximal activity concentration (AC50) was 0.00461 µM [rising, full curve, poor fit].

With `CCCc1nc2ccccc2c(C(=O)OCc2nnc(-c3cc(OC)c(OC)c(OC)c3)o2)c1CC`, the AC50 under setting [1] is 29.1 µM [falling, single point].

As for `O=C(Nc1ccccc1)Nc1ccc(-n2ccc(C(F)(F)F)n2)cc1`, under setting [1], the half-maximal activity concentration (AC50) is 0.708 µM [rising, full curve, poor fit].

With `c1ccc(-c2csc(-c3cccnc3)n2)cc1`, the AC50 under setting [1] was 35.5 µM [rising, single point].

`O=C(Nc1cccc(OC(=O)c2cccnc2)c1)c1cccnc1`: the AC50 under setting [1] is 12.6 µM [falling, partial curve, poor fit].

`COc1cc(C(C[N+](=O)[O-])c2c(C)[nH]c3ccccc23)cc(OC)c1OC` (stereo not drawn): under setting [1], the AC50 is 29.1 µM [falling, single point].

Regarding `CCCCOCCCNC(=O)c1ccc(OC)cc1`, the AC50 under setting [1] was 6.51 µM [rising, single point].

Turning to `CCN(CC)c1ccc(NS(=O)(=O)c2cn(C)c(=O)n(C)c2=O)c(C)c1`, under setting [1], the AC50 is 5.01 µM [falling, partial curve, poor fit].

Take `CCOc1ccc2[nH]cc(C(=O)NCc3ccccc3)c(=O)c2c1`: the AC50 under setting [1] is 3.16 µM [falling, full curve].

Regarding `COc1ccc(C(=O)/C(=C\c2ccco2)N2C=CC=CC2=C(C#N)C#N)cc1`, the concentration at half-maximal activity (AC50) under setting [1] was 35.5 µM [falling, single point].

On to `O=C(CNC(c1ccccc1)c1ccccc1)Nc1ccccc1-c1ccccc1`, for which the AC50 under setting [1] was 25.9 µM [falling, single point].

As for `O=C(O/N=C/c1ccc(Cl)cc1)C1CCCCC1`, the concentration at half-maximal activity (AC50) under setting [1] is 25.1 µM [rising, single point].

As to `COc1ccccc1NC(=O)Nc1ccc2[nH]c(=O)[nH]c2c1`, the AC50 under setting [1] is 10 µM [falling, partial curve].

Turning to `CCN(CC)c1ccc(/C=N/NC(=S)NC)c(O)c1`, the AC50 runs as follows: under setting [1], 1.58 µM [rising, partial curve]; under setting [2], 1.12 µM [falling, full curve].

Take `COc1ccc(NC(=S)NC(=O)/C=C/c2ccco2)cc1`: the AC50 by setting is: under setting [1], 35.5 µM [rising, single point]; under setting [2], 3.55 µM [falling, full curve].

Regarding `COc1cccc(C2C(C(=O)c3cccs3)=C(O)C(=O)N2CCN2CCOCC2)c1OC` (stereo not drawn), under setting [1], the AC50 was 22.4 µM [rising, single point].

As to `CCOc1ccc(Br)cc1S(=O)(=O)NC(=O)c1ccccc1`, under setting [2], the AC50 was 12.6 µM [rising, partial curve, poor fit].

Regarding `CC(C)OC(=O)CSc1nnc(-c2ccc(Cl)cc2Cl)n1N`, the AC50 under setting [1] was 20.6 µM [falling, partial curve, poor fit].

Consider `O=C(CSc1nc2ccc(Cl)cc2[nH]1)c1c[nH]c2ccccc12`, for which the AC50 under setting [1] is 35.5 µM [falling, partial curve, poor fit].

In the case of `CC(C)c1ccc(-c2noc(C3CCCN(S(C)(=O)=O)C3)n2)cc1` (stereo not drawn), the concentration at half-maximal activity (AC50) under setting [1] is 10.3 µM [rising, partial curve, poor fit].

As for `C/C=C/COC(=O)c1[nH]c2c(c1C)C(=O)CC(c1ccco1)C2` (stereo not drawn), under setting [1], the AC50 was 3.66 µM [rising, full curve].

For the compound `CCCc1cc(=O)n2[nH]c(SCc3ccccc3)nc2n1`, under setting [1], the AC50 was 5.17 µM [falling, partial curve].

As for `Cc1ccc(-n2cnc3cc(C(=O)NC4CCCCCC4)ccc32)c(C)c1`, the AC50 under setting [1] is 35.5 µM [rising, single point].

Regarding `CC(C)c1c(C(=O)N/N=C/c2cccc(OCc3ccccc3)c2)nnn1-c1nonc1N`, the AC50 under setting [1] is 22.4 µM [rising, single point].

For `O=C(NNC(=S)Nc1cccc(Cl)c1)c1ccccc1`, under setting [1], the AC50 was 4.47 µM [falling, full curve, poor fit].

As for `CCCCCc1ccc(-c2ccc(=O)[nH]n2)cc1`, the half-maximal activity concentration (AC50) under setting [1] is 2.51 µM [rising, partial curve, poor fit].

Regarding `CCOC(=O)c1c(NC(=S)Nc2ccc(F)cc2)sc2c1CCC2`, the AC50 under setting [1] is 29.1 µM [falling, single point].

For the compound `N#CCCn1nc(-c2ccc([N+](=O)[O-])cc2)cc1Nc1ccccc1NC(=O)C(F)(F)F`, the AC50 by setting is: under setting [1], 23.1 µM [falling, single point]; under setting [2], 29.1 µM [rising, single point].

On to `CCOC(=S)NC(=O)c1sc2ccccc2c1Cl`, for which the AC50 under setting [1] is 11.2 µM [falling, single point].

As for `O=C(CSc1nc(-c2ccc(F)cc2)cs1)N1CCN(C(=O)c2ccco2)CC1`, the half-maximal activity concentration (AC50) under setting [1] was 35.5 µM [falling, single point].

Consider `CCCCn1c(SCC(=O)Nc2cccc(OC)c2)nc2ccc(N3CCOCC3)cc2c1=O`, for which, under setting [1], the AC50 is 0.82 µM [falling, full curve, poor fit].

Take `CCOC(=O)c1c(/N=C/C2=C(O)CC(C)(C)CC2=O)sc2c1CCCC2`: the AC50 under setting [1] was 17.8 µM [rising, partial curve, poor fit].

Turning to `CCOC(=O)c1c(C)[nH]c(C(=O)COC(=O)C23CC4CC(CC(Cl)(C4)C2)C3)c1C`, the AC50 under setting [1] was 0.0326 µM [falling, full curve, poor fit].

For the compound `O=C(COc1cccc(-n2cnnn2)c1)Nc1ccc([N+](=O)[O-])cc1`, the AC50 under setting [1] is 0.708 µM [rising, full curve, poor fit].

Consider `O=C(Nc1ccccc1)C1=C[C@@H](C2CC2)C[C@@H](OCCCCO)O1`, for which the AC50 under setting [1] was 5.01 µM [rising, full curve, poor fit].

Take `N#Cc1nc(COc2ccccc2)oc1N1CCCCC1`: the AC50 under setting [1] is 7.08 µM [rising, partial curve, poor fit].

The values are drawn from PubChem BioAssay AID493014 (National Center for Advancing Translational Sciences (NCATS), 2011).
